Article PMC13193366
Results are given in words; binding and its absence hold for the method and conditions named. For part of these data: Binding can be weak; no strength is given. For part of these data: Tags and fused reporters may be left off the sequences shown. For part of these data: Binding seen in cells or lysates may run through a third protein. Blank lines part the entries; values can stand above or below the molecule they belong to.

Columns and labels:
[1] = biological target: T1, PpCLF (Physcomitrium patens CLF), yeast two-hybrid fusion (Physcomitrium patens) (UniProt C0STZ0); assay: two-hybrid; S. cerevisiae AH109, Gal4-AD and Gal4-BD constructs co-transformed; growth on high stringency selective medium (SD -Leu -Trp -Ade -His; -LWAH), 30°C
T1 sequence: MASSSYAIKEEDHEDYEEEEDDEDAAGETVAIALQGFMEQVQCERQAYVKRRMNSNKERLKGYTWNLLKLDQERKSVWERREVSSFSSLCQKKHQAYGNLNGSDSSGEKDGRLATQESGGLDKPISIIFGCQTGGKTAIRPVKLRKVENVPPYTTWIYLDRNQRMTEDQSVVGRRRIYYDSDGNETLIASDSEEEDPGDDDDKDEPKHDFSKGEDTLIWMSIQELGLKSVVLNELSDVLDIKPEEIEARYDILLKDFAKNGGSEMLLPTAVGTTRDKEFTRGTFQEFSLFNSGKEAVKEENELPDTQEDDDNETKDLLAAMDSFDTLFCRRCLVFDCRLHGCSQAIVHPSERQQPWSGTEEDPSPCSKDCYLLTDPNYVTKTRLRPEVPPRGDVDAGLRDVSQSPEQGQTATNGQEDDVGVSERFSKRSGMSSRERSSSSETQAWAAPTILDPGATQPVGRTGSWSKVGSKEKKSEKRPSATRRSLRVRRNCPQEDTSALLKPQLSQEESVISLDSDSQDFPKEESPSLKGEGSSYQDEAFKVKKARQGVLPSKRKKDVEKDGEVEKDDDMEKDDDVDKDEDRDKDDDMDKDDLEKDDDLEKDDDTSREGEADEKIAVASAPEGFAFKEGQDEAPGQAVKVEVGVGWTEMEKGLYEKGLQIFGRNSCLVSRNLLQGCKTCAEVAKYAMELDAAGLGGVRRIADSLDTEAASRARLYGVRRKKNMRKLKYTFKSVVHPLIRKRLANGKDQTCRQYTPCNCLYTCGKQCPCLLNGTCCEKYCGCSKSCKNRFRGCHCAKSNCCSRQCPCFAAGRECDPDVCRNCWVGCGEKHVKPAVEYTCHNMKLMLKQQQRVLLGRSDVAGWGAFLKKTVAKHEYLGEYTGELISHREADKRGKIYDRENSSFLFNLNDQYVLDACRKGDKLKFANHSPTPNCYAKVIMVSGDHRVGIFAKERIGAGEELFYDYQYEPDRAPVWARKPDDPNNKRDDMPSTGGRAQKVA

[2] = biological target: T2, PpCLF-mCherry (i35Spro::PpCLF-mCherry) (Physcomitrium patens) (UniProt C0STZ0); assay: FRET or BRET; FLIM-FRET: GFP fluorescence lifetime in nuclei of Nicotiana tabacum leaf epidermal cells co-expressing GFP- and mCherry/RFP-tagged proteins; measured within nuclear speckles (AtPWO1, SmPWOa) or in the nucleolus (SmPWOb)
T2 sequence: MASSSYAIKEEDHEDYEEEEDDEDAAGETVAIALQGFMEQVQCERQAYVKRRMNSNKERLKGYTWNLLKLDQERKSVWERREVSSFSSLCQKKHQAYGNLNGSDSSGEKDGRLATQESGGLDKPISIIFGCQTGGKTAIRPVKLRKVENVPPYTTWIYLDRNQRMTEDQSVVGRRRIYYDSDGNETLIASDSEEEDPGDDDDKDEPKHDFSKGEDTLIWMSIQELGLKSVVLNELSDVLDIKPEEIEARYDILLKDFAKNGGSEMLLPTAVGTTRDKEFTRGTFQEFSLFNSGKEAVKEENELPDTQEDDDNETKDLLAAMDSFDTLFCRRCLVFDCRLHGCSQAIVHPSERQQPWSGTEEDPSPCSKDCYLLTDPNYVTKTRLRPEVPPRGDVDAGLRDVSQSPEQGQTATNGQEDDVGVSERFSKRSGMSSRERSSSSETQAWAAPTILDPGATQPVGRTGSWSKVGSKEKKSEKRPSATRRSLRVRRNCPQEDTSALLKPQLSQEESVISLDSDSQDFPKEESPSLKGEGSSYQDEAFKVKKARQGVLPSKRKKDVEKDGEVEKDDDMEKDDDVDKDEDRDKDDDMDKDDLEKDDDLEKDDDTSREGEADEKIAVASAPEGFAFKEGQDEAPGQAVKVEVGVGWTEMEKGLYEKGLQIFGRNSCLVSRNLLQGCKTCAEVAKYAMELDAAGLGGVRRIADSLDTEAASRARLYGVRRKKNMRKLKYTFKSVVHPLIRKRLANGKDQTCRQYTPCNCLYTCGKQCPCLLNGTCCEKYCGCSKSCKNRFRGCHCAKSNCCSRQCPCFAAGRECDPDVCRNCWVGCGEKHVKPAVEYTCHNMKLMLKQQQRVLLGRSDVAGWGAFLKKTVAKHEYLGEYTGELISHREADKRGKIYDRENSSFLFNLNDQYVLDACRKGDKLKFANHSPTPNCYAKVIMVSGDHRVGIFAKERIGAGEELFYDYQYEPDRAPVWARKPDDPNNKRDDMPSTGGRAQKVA

[3] = biological target: T3, RFP-ARR1 (35Spro::RFP-ARR1; ARABIDOPSIS RESPONSE REGULATOR1) (Arabidopsis thaliana) (UniProt Q940D0); assay: as above
T3 sequence: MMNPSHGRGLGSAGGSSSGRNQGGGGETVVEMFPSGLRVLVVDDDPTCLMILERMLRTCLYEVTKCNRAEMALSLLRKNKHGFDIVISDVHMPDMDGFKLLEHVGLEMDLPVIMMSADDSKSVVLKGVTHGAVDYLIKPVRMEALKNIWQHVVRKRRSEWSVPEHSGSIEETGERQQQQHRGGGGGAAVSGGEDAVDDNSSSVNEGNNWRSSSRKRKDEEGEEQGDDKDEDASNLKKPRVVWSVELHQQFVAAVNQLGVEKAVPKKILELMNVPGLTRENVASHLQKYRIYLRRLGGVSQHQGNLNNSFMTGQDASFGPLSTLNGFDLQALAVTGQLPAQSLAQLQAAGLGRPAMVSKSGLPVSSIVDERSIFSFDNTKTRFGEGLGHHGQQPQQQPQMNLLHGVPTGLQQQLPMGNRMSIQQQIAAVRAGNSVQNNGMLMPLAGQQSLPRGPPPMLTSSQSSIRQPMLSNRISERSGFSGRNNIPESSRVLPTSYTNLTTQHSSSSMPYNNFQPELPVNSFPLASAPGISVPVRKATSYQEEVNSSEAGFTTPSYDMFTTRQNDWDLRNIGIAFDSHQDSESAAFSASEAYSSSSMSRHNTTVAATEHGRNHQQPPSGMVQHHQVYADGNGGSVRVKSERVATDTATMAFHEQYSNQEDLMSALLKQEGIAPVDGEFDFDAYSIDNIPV

[4] = biological target: T4, RFP-ARR2 (35Spro::RFP-ARR2) (Arabidopsis thaliana) (UniProt Q9ZWJ9); assay: as above
T4 sequence: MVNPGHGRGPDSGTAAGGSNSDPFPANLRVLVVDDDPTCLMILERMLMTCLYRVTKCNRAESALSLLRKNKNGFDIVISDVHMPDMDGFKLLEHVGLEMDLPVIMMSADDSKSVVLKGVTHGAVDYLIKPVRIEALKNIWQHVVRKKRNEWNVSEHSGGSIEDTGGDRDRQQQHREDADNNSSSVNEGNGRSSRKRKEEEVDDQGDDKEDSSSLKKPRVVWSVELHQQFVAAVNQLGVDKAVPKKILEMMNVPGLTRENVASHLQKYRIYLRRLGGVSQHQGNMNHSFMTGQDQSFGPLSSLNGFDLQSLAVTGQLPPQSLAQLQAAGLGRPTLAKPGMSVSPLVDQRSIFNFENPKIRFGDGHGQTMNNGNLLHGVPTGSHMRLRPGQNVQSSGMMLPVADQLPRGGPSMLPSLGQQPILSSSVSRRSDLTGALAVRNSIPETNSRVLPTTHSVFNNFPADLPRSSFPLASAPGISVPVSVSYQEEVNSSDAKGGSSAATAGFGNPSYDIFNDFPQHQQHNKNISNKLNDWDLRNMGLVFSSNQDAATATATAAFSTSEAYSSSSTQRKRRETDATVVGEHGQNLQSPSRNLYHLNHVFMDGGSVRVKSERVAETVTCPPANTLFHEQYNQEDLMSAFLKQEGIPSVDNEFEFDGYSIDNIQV

[5] = biological target: T1, PpCLF (Physcomitrium patens CLF), yeast two-hybrid fusion (Physcomitrium patens); assay: two-hybrid; S. cerevisiae AH109; growth on low stringency selective medium (SD -Trp -Leu +Ade -His; -LWH)
[6] = biological target: AtCLFΔSET (CURLY LEAF with the SET domain deleted), yeast two-hybrid fusion (pGBKT7) (Arabidopsis thaliana); assay: two-hybrid; yeast two-hybrid of AtPWO2 (Fig. S12C); selection medium not told for this experiment
[7] = biological target: AtSWNΔSET (SWINGER with the SET domain deleted), yeast two-hybrid fusion (pGBKT7) (Arabidopsis thaliana); assay: as above
[8] = biological target: SmCLF (Selaginella moellendorffii CLF), yeast two-hybrid fusion (Selaginella moellendorffii); assay: as above
[9] = biological target: AtCLFΔSET (CURLY LEAF with the SET domain deleted), yeast two-hybrid fusion (pGBKT7) (Arabidopsis thaliana); assay: two-hybrid; S. cerevisiae AH109, Gal4-AD and Gal4-BD constructs co-transformed; growth on high stringency selective medium (SD -Leu -Trp -Ade -His; -LWAH), 30°C
[10] = biological target: AtSWNΔSET (SWINGER with the SET domain deleted), yeast two-hybrid fusion (pGBKT7) (Arabidopsis thaliana); assay: as above
[11] = biological target: SmCLF (Selaginella moellendorffii CLF), yeast two-hybrid fusion (Selaginella moellendorffii); assay: as above

binding [2]: no binding
binding [3]: no binding
binding [4]: no binding
Molecule: GFP-SmPWOb (i35Spro::GFP-SmPWOb) (Selaginella moellendorffii)

binding [2]: binds
binding [3]: no binding
binding [4]: no binding
Molecule: GFP-SmPWOa (i35Spro::GFP-SmPWOa) (Selaginella moellendorffii)

binding [6]: no binding
binding [7]: no binding
binding [8]: no binding
B1: AtPWO2, yeast two-hybrid fusion (protein, UniProt P59278 1-597)
chain: MESNDDRNLEAINASVGRLVWVRRRNGSWWPGQTLVHDQVPDNSLVGPKVGTPIKLLGRDDVSVDWYILENSKTVKAFRCGEYDTCIEKAKASSSKKRSGKCTLREDAINNALKIENEHLAKEDDNLCNLSGEEDSKRCLSGKEDEDSGSSDAEETEDDELASAPEQLQSSISSQEMNNVGASKVQSKRRRTPNDSEDDGTEGVKRMRGLEDIGKEQAGGIVEHKQDLDLICAVGLSDSVSNGNTIANGNKVCSPSSLKRNVSECSKRKNRRRQLTKVLESTAMVSVPVTCDQGVSLDCQGIYDSKVSGMESVESMKSVSVVINNNSDSTGVSCEDAYENVVGASHNNKAKDSEISSISVSAEDDSSDRLFDVPLTGEENHSEGFPAACRISSPRKALVTDLTRRCGRNSHNVFVKNEASNGSACTSPPASEPVNCILSGIEKNTSKWQLKGKRNSRQMSKKQEERRNVYGEEANNNSSTPHSTLYEVKIEVKASYTKPRVPLVSRMSELSGKAIVGHPLSVEILEEDYSNGMVMPPVVAKAKSLPKKNGKKQTTEKAKETVVACIPLKVVFSRINEVLKGSARQTQHRALPSAAKT

binding [9]: binds weakly
binding [10]: binds
binding [11]: no binding
B2: AtPWO1 (PWWP-DOMAIN INTERACTOR OF POLYCOMBS 1), yeast two-hybrid fusion (protein, UniProt Q9M9N3 1-769)
chain: MASPGSGAVDWTVGSIVWVRRRNGSWWPGRILGQEDLDSTHITSPRSGTPVKLLGREDASVDWYNLEKSKRVKPFRCGDFDECIERVESSQAMIIKKREKYARREDAILHALELEKEMLKREGKLVPEKARDDSLDATKERMAIVRVQDTSNGTRESTDYLRTNHVGDVMHLLRDKEEDQPSCEDEAVPRMRGLQDFGLRTASSKRKISCSNGPDTSFKYLARSNSSASSSGDHSMERPIYTLGKEKTKSRAEAKRTKYMFTPSESNDVSDLHENLLSHRDAMHSSFAGGDTRYSDYDPPNFLEDMESDYSESETDSSDMEEDTDDDIPLLSGAGRHSERRNTFSRHTSGEDESTSSEEDHYESSISGDSSYLYSQNPNNEASTVSNWQHKGKRNFRTLPRRSARKRKLHRNRLEDGRYCEYKRRAFGQKPMGYGLDFNGINDMSDGTDDTDPNERQFGDRMIVPGDDYQLSNVVASRCKNIYSHDMLDWDDDPWEGRIGMKKRGEEKLEGLGQEFDVSERHFGRKTYSSLMDVDLEVRGSYQKGPVPIVSLMSKLNGRAIIGHPVEVEVLADGSSESYIQTIDYFGNETTYQDKTFLLPSAWKTARRSNSRVPRLQPFSSSVEADDDATYDYSLADQGRKPLVKKLGLGHFSNDDNSVRRNSSLRIPRPPAERKQQHQQQQKKLLKNTNATASQKTRALSSFSGEQGHNGMKASRDRTHELSNRRVLPGPPTVACIPVKLVYSRLLEKINRPPSKPTAKAFNERRRVQ

Second part, the molecule before the results:

Molecule: SmPWOa-ΔC-motif (Δ594–612 aa), yeast two-hybrid fusion (Selaginella moellendorffii)
binding [1]: binds

Molecule: SmPWOb (Selaginella moellendorffii PWO ortholog b), yeast two-hybrid fusion
binding [5]: binds weakly

Molecule: SmPWOa (Selaginella moellendorffii PWO ortholog a), yeast two-hybrid fusion
binding [1]: binds
